Data as given in PMC9299836 (eLife, 2022).
Values joined by “and” are separate entries in the source; they are usually repeats but may differ in a detail not shown here. Identical values can stand only once. This continues a long series; more values of the same kind are listed elsewhere.

Sequences of proteins named here, by UniProt entry; tags and fusion partners are left off. Residues count along the entry.
UniProt Q14BI2, 19-872: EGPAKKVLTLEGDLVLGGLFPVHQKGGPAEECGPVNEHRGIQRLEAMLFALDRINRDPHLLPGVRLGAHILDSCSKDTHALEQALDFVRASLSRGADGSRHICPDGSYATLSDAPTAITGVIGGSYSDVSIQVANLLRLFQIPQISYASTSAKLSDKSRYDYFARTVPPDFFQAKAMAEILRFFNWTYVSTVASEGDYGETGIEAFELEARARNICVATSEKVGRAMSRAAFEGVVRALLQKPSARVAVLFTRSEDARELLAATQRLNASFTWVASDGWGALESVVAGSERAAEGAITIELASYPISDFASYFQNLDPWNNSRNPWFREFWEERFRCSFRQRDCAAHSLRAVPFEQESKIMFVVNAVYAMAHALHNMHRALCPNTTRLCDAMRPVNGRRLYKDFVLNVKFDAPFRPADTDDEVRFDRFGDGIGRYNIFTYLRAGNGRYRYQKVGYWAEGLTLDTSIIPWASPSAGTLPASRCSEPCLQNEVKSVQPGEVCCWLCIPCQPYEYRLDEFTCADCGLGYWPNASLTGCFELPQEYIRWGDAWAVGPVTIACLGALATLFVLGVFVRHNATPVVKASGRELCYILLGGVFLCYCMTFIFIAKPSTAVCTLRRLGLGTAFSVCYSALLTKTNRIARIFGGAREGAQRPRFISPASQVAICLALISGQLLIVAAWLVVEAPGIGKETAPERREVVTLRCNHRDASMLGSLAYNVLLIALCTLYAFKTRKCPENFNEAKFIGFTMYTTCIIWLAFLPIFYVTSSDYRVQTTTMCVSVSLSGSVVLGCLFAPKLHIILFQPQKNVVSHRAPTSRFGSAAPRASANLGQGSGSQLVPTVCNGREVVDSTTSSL
UniProt Q14BI2, 19-872 A548F: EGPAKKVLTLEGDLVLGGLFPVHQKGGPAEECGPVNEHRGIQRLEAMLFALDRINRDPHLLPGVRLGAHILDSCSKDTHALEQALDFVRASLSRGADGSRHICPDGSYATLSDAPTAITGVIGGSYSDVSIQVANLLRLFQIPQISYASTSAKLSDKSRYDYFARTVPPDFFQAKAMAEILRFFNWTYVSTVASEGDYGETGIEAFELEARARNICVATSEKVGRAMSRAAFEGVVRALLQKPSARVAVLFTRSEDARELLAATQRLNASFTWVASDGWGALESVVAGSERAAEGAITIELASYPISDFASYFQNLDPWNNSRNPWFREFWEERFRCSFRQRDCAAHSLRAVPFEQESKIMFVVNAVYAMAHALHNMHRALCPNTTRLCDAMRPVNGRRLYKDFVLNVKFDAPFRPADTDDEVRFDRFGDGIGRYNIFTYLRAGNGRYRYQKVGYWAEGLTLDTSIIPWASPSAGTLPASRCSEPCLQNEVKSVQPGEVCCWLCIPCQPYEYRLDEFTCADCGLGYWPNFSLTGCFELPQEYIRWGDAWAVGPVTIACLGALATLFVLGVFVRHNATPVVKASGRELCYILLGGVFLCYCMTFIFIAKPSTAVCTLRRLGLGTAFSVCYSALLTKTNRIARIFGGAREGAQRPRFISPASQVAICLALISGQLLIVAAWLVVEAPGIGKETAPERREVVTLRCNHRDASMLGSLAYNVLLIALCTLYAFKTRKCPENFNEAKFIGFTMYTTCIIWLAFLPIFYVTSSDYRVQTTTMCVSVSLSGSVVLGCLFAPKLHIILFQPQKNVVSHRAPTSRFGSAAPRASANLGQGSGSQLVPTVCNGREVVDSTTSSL

Key:
[1] = target: mGluR2 (Mus musculus, UniProt Q14BI2); assay: Live-cell FRET, SNAP-m2 (VFT domain) inter-subunit sensor in HEK293T cells; settings: Glutamate + 10μM BINA, individual cells, normalized to 1mM glutamate;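 note: apparent FRET efficiency from whole-membrane ROIs of single cells, corrected for donor bleed-through and background, ΔFRET as treatment minus pretreatment signal, recorded at room temperature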
[2] = target: mGluR2 (Mus musculus, UniProt Q14BI2, A548F); assay: smFRET of azi-CRD: cross-correlation of donor and acceptor intensities (CRD dynamics) and HMM transition density plots; settings: 1000μM Glutamate + 10μM BINA, N=3;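 note: single detergent-solubilized receptors captured on antibody-coated flow cells via C-terminal FLAG-tag, imaged by smFRET, donor and acceptor intensity traces from three independent biological replicates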

SNAP-m2 FRET response (PAM DRC) ([1]; log[Glutamate] (M) -3): -1.024 | SNAP-m2 FRET response (PAM DRC) ([1]; log[Glutamate] (M) -5.82391): -0.8762 and -0.701 and -0.8445 | Cross Correlation, Mean ([2]; Time 0 s): -0.235 | Cross Correlation, Mean ([2]; Time 0.05 s): -0.1261 | Cross Correlation, Mean ([2]; Time 0.1 s): -0.1028 | Cross Correlation, Mean ([2]; Time 0.15 s): -0.08554 | Cross Correlation, Mean ([2]; Time 2.2 s): -0.02009 | Cross Correlation, Mean ([2]; Time 2.25 s): -0.01896 | Cross Correlation, Mean ([2]; Time 2.3 s): -0.01579 | Cross Correlation, Mean ([2]; Time 2.35 s): -0.01431 | Cross Correlation, Mean ([2]; Time 2.4 s): -0.01205 | Cross Correlation, Mean ([2]; Time 2.45 s): -0.01717 | Cross Correlation, Mean ([2]; Time 2.5 s): -0.01048 | Cross Correlation, Mean ([2]; Time 2.55 s): -0.02038 | Cross Correlation, Mean ([2]; Time 2.6 s): -0.0117 | Cross Correlation, Mean ([2]; Time 2.65 s): -0.01182 | Cross Correlation, Mean ([2]; Time 2.7 s): -0.01456 | Cross Correlation, Mean ([2]; Time 2.75 s): -0.01307 | Cross Correlation, Mean ([2]; Time 2.8 s): -0.01003 | Cross Correlation, Mean ([2]; Time 2.85 s): -0.01096 | Cross Correlation, Mean ([2]; Time 2.9 s): -0.01497 | Cross Correlation, Mean ([2]; Time 2.95 s): -0.01462
Compound: Cc1c(OCc2cccc(-c3ccc(C(=O)O)cc3)c2)cc2c(c1C)C(=O)C(C1CCCC1)C2 (centres unmarked) [BINA]
SNAP-m2 FRET response (PAM DRC) ([1]; log[Glutamate] (M) -4.1549): -1.078 and -1.045 and -0.9953 and -1.038 and -1.042 and -1.012 and -0.992 and -1.05 and -1.084 and -1.089 and -1.061 and -1.027 and -1.077 and -1.051 and -1.0704 and -1.116 and -1.006 and -1.041 and -0.987 and -1.001 and -1.033 and -1.036 and -1.07 | SNAP-m2 FRET response (PAM DRC) ([1]; log[Glutamate] (M) -4.52288): -1.117 and -1.075 and -1.049 and -1.05 and -1.097 and -1.081 and -0.9919 and -1.1139 and -1.102 and -1.138 and -1.162 and -1.165 and -1.095 and -1.073 and -0.9523 and -1.128 and -0.9709 and -1.015 and -0.9848 and -1.02 and -1.041 and -1.012 and -1.072 | SNAP-m2 FRET response (PAM DRC) ([1]; log[Glutamate] (M) -5): -0.9989 and -1.091 (2×) and -1.064 and -1.113 and -1.138 (2×) and -0.9661 and -1.069 and -1.15 and -1.145 and -0.9381 and -1.065 and -1.143 and -1.025 and -1.187 and -0.6002 and -0.8738 and -0.9165 and -0.9455 and -1.092 and -1.016 and -1.032 | SNAP-m2 FRET response (PAM DRC) ([1]; log[Glutamate] (M) -5.39794): -0.7022 and -1.046 and -0.9826 and -1.017 and -1.031 and -1.079 and -0.896 and -0.941 and -1.074 and -1.129 and -1.11 and -0.5929 and -1.041 and -1.088 and -0.9891 and -1.102 and -0.3001 and -0.5862 and -0.6772 and -0.7483 and -1.068 and -0.8917 and -1.048
